From publication doi:10.1101/822973
Results are given in words; binding and its absence hold for the method and conditions named. Binding seen in cells or lysates may run through a third protein. Some binding calls cover weakened binding; strength is not graded here.

By UniProt entry, the sequences of proteins in these tests, tags left out.
UniProt P22561: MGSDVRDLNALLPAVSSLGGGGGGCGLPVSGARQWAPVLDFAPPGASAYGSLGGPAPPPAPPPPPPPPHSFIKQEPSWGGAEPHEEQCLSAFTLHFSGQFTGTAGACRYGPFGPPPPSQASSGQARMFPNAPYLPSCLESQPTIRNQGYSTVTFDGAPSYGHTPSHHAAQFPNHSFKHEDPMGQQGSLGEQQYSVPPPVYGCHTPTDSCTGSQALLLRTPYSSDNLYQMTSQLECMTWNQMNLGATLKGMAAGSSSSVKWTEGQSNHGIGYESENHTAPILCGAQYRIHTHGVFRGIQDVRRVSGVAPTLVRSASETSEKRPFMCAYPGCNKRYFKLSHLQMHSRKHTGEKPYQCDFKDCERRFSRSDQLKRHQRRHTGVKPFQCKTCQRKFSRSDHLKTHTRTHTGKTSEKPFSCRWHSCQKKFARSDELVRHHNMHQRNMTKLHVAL
UniProt Q8NDV7: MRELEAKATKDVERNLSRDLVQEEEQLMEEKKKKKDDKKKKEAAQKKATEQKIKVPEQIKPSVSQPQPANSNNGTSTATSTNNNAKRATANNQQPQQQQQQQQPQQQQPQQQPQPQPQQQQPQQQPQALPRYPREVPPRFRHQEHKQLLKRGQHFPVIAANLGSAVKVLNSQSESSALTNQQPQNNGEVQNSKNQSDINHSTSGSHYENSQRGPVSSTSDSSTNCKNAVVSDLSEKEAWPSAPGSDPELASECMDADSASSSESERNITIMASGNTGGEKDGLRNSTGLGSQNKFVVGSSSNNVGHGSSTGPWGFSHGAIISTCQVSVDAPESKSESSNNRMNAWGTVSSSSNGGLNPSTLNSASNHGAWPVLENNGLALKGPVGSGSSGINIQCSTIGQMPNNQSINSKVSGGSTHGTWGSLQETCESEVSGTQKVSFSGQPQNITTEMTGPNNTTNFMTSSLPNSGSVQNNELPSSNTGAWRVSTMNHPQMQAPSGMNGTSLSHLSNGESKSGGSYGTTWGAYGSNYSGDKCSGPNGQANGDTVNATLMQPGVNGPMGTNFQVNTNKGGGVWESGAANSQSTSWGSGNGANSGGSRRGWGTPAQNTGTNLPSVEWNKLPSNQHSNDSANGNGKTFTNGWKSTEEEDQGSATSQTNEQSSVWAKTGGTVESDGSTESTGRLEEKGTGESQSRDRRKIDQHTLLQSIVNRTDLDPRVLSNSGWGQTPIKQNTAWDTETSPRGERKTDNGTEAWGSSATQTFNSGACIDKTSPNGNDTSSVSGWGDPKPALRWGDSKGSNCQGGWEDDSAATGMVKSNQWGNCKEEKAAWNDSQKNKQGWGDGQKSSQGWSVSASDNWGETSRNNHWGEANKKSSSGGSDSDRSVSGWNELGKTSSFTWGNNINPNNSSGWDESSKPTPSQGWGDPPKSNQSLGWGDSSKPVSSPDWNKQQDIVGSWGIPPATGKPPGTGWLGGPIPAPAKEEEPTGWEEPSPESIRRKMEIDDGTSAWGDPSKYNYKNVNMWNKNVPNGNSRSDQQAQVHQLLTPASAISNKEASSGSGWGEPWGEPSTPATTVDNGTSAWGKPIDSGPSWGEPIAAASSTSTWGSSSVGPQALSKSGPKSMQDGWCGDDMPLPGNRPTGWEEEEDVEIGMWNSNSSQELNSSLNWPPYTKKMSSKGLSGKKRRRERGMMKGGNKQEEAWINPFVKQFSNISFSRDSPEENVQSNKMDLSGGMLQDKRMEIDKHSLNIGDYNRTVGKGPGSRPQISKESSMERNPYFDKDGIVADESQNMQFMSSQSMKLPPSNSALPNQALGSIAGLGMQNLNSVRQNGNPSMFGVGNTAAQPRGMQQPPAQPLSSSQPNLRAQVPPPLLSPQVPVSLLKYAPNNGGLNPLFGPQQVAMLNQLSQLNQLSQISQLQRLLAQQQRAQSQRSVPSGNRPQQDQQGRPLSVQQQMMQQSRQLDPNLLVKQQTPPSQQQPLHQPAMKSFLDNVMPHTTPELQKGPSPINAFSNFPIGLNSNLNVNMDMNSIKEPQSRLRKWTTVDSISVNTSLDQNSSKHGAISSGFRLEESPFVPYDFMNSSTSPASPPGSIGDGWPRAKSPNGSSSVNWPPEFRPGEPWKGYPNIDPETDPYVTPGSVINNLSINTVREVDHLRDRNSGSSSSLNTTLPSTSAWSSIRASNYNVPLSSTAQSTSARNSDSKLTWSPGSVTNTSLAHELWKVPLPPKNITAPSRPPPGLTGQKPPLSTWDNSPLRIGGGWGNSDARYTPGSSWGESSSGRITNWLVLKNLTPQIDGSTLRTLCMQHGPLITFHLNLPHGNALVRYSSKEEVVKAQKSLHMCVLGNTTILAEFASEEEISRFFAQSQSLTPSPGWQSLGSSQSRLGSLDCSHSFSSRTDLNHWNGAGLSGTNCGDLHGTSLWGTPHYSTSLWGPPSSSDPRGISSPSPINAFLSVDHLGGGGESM
UniProt Q8CJG0: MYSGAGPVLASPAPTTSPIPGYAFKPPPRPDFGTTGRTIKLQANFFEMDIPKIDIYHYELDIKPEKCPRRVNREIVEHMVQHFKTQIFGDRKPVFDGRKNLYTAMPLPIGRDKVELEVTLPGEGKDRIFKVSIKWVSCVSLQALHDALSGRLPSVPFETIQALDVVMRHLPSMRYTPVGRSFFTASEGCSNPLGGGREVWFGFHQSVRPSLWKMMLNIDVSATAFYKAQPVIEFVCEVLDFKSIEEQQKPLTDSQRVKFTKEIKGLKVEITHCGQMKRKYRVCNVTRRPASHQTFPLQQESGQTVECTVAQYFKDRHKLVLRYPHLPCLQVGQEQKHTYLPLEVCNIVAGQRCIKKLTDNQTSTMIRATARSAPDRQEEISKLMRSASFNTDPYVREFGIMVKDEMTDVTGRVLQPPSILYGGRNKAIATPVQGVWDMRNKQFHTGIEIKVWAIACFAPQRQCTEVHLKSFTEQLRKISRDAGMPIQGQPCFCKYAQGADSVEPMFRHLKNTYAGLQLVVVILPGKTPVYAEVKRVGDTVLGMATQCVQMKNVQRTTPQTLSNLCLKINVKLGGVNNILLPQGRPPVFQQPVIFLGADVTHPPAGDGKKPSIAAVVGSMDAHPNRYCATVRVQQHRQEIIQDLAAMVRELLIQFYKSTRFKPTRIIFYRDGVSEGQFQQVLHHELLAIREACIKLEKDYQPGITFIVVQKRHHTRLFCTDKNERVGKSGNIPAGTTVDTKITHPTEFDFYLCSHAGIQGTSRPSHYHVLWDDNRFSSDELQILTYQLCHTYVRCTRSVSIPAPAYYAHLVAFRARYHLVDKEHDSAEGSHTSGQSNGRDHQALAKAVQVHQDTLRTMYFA

Assays:
[1] = target: Wilms' tumour 1 (WT1) protein (mouse (endogenous in M15)) (UniProt P22561); experiment: co-IP
[2] = target: GFP tagged GW182 (UniProt Q8NDV7); experiment: co-IP

| binding [1] | binding [2] | Substance |
| --- | --- | --- |
| binds | – | Argonaute 2 (AGO2) (from UniProt Q8CJG0 1-860) |
| binds | – | Argonaute 1 (AGO1) (from UniProt Q8CJG1 1-857) |
| – | binds | Wilms' tumour 1 (WT1) protein in the cells transfected with GFP-GW182 (from UniProt P22561 1-449) |
